Assay: Standard curve from reflection-absorbance, measurement sensitivity (Example 8)
Details: human blood, hematocrit 40%, 50, 100, 400, 600 mg/dL glucose; lower slope means higher sensitivity; FIG. 4

Cc1c(N)c(=O)n(-c2ccc(S(=O)(=O)O)cc2)n1C [CP2, 4-amino-1-(4-sulfophenyl)-2,3-dimethyl-5-pyrazolone]
Slopes of the standard curves (measurement sensitivity): decrease as compared with that of 4-AA

Cc1c(N)c(=O)n(-c2ccc(C(=O)O)cc2)n1C [CP1, 4-amino-1-(4-carboxyphenyl)-2,3-dimethyl-5-pyrazolone]
Slopes of the standard curves (measurement sensitivity): decrease as compared with that of 4-AA

— patent US20100062464A1, “OXIDATIVE CHROMOGENIC COMPOUND OR SALT THEREOF AND PRODUCTION METHOD THEREOF, AND REAGENT COMPOSITION AND TEST INSTRUMENT USING THE SAME” (Terumo Kabushiki Kaisha, priority 2007, published 2010)
